Binding data for 4 molecules are collected here from PMC7312997.

Sequences of proteins named here, by UniProt entry; tags and fusion partners are left off.
UniProt P40937: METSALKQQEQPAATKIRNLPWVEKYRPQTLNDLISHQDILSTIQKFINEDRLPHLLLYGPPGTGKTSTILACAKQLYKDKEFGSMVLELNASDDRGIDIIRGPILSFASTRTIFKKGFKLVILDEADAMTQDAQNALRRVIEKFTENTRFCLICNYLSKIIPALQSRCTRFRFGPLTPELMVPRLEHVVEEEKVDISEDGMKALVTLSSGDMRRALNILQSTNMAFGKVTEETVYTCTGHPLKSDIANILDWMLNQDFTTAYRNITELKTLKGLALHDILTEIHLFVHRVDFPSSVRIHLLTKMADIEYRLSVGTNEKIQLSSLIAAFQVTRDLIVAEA
UniProt P12004: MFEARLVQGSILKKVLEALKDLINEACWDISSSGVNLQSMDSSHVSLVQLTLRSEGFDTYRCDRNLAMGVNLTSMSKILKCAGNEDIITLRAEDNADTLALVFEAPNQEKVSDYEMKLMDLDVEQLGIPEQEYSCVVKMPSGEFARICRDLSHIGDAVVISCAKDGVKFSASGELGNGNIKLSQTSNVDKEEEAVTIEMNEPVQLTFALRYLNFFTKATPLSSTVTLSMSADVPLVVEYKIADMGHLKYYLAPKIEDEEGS

These are yes or no findings as the source states them, for the method shown. Binding seen in cells or lysates may run through a third protein. Some entries that bind do so weakly or less than the wild type. Where a sequence is shown, tags or fusion partners need not be part of it.

For test [1], the target named is T1, MYSM1-Flag (Myb-like Swirm and MPN domain containing 1, 2A-DUB/MYSM1) (UniProt Q5VVJ2).
T1 sequence: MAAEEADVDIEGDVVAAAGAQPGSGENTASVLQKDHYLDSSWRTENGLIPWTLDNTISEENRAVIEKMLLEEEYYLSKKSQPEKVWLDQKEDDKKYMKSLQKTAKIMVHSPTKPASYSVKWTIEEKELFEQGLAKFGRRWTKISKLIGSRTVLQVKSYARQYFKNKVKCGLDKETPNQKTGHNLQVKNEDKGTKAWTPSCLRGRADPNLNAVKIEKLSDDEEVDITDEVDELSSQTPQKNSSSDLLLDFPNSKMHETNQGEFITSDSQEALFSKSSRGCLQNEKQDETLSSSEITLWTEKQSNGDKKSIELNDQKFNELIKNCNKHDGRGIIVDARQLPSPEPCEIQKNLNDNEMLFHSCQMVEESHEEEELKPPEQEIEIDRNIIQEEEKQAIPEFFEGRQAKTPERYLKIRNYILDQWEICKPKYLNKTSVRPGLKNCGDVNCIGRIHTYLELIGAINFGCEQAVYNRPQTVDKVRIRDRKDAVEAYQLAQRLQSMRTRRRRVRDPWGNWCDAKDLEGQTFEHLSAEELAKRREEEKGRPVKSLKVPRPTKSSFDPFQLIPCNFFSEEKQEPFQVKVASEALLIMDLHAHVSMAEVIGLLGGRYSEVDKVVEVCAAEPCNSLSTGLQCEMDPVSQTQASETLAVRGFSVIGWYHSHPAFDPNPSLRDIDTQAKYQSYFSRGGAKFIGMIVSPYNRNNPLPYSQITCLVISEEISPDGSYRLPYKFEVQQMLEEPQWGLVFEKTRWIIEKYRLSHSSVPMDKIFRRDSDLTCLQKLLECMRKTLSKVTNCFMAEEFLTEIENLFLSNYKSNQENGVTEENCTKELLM
The experiment in a line: co-IP; anti-Flag antibody (F1804) vs. control IgG on Protein G Dynabeads, overnight with 200 µg lysate of MYSM1-Flag transfected 293T cells in PBS-T at 4 °C; cells treated with etoposide or DMSO; Western blot of the eluate.

The target of test [2] is T2, DNA helicase HELLS (human (endogenous in 293T)) (UniProt Q9NRZ9).
T2 sequence: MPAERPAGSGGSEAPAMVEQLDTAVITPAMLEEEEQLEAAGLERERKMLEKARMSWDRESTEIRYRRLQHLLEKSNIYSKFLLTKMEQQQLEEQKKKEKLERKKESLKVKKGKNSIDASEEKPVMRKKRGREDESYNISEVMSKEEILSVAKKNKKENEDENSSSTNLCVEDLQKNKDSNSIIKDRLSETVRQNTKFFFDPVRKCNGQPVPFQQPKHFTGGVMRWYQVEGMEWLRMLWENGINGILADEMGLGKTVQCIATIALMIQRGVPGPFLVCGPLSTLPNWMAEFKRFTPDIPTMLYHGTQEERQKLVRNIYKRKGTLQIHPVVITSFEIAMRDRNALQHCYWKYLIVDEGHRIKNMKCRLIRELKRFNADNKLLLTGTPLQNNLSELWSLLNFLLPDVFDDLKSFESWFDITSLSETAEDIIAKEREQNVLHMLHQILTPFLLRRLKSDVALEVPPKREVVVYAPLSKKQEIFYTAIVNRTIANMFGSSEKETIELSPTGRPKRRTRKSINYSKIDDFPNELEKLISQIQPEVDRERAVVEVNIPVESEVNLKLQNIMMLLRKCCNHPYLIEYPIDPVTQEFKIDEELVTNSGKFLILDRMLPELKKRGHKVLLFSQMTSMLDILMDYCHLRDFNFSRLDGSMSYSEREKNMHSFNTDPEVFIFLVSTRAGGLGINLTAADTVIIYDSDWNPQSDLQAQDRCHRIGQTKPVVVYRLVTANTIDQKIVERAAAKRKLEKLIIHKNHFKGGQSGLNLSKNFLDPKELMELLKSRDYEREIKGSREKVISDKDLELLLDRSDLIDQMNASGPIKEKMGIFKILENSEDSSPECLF
The test can be described thus: co-IP; reverse co-IP with antibodies against HELLS, PCNA or RFC5 vs. control IgG in lysates of MYSM1-Flag transfected 293T cells treated with etoposide or DMSO for 6 h; Western blot (MYSM1 detected by anti-Flag).

Test [3] has as its target replication factor C subunit RFC5 (human (endogenous in 293T)) (UniProt P40937). The description is as above.
Test [4] concerns the target PCNA (human (endogenous in 293T)) (UniProt P12004). Described as above.

Regarding “replication factor C subunit RFC5 (from UniProt P40937 1-340)”, the binding entry in test [1] and in test [2] was “binds” throughout.
In the case of PCNA (from UniProt P12004 1-261), the binding entry in test [1] and in test [2] was “binds” in each case.

B1: DNA helicase HELLS (enzyme, UniProt Q9NRZ9 1-838)
chain: MPAERPAGSGGSEAPAMVEQLDTAVITPAMLEEEEQLEAAGLERERKMLEKARMSWDRESTEIRYRRLQHLLEKSNIYSKFLLTKMEQQQLEEQKKKEKLERKKESLKVKKGKNSIDASEEKPVMRKKRGREDESYNISEVMSKEEILSVAKKNKKENEDENSSSTNLCVEDLQKNKDSNSIIKDRLSETVRQNTKFFFDPVRKCNGQPVPFQQPKHFTGGVMRWYQVEGMEWLRMLWENGINGILADEMGLGKTVQCIATIALMIQRGVPGPFLVCGPLSTLPNWMAEFKRFTPDIPTMLYHGTQEERQKLVRNIYKRKGTLQIHPVVITSFEIAMRDRNALQHCYWKYLIVDEGHRIKNMKCRLIRELKRFNADNKLLLTGTPLQNNLSELWSLLNFLLPDVFDDLKSFESWFDITSLSETAEDIIAKEREQNVLHMLHQILTPFLLRRLKSDVALEVPPKREVVVYAPLSKKQEIFYTAIVNRTIANMFGSSEKETIELSPTGRPKRRTRKSINYSKIDDFPNELEKLISQIQPEVDRERAVVEVNIPVESEVNLKLQNIMMLLRKCCNHPYLIEYPIDPVTQEFKIDEELVTNSGKFLILDRMLPELKKRGHKVLLFSQMTSMLDILMDYCHLRDFNFSRLDGSMSYSEREKNMHSFNTDPEVFIFLVSTRAGGLGINLTAADTVIIYDSDWNPQSDLQAQDRCHRIGQTKPVVVYRLVTANTIDQKIVERAAAKRKLEKLIIHKNHFKGGQSGLNLSKNFLDPKELMELLKSRDYEREIKGSREKVISDKDLELLLDRSDLIDQMNASGPIKEKMGIFKILENSEDSSPECLF
Take B1: the binding result in test [1] and in test [3] was “binds” each time.

B2: MYSM1-Flag (Myb-like Swirm and MPN domain containing 1, 2A-DUB/MYSM1) (enzyme, UniProt Q5VVJ2 1-828)
chain: MAAEEADVDIEGDVVAAAGAQPGSGENTASVLQKDHYLDSSWRTENGLIPWTLDNTISEENRAVIEKMLLEEEYYLSKKSQPEKVWLDQKEDDKKYMKSLQKTAKIMVHSPTKPASYSVKWTIEEKELFEQGLAKFGRRWTKISKLIGSRTVLQVKSYARQYFKNKVKCGLDKETPNQKTGHNLQVKNEDKGTKAWTPSCLRGRADPNLNAVKIEKLSDDEEVDITDEVDELSSQTPQKNSSSDLLLDFPNSKMHETNQGEFITSDSQEALFSKSSRGCLQNEKQDETLSSSEITLWTEKQSNGDKKSIELNDQKFNELIKNCNKHDGRGIIVDARQLPSPEPCEIQKNLNDNEMLFHSCQMVEESHEEEELKPPEQEIEIDRNIIQEEEKQAIPEFFEGRQAKTPERYLKIRNYILDQWEICKPKYLNKTSVRPGLKNCGDVNCIGRIHTYLELIGAINFGCEQAVYNRPQTVDKVRIRDRKDAVEAYQLAQRLQSMRTRRRRVRDPWGNWCDAKDLEGQTFEHLSAEELAKRREEEKGRPVKSLKVPRPTKSSFDPFQLIPCNFFSEEKQEPFQVKVASEALLIMDLHAHVSMAEVIGLLGGRYSEVDKVVEVCAAEPCNSLSTGLQCEMDPVSQTQASETLAVRGFSVIGWYHSHPAFDPNPSLRDIDTQAKYQSYFSRGGAKFIGMIVSPYNRNNPLPYSQITCLVISEEISPDGSYRLPYKFEVQQMLEEPQWGLVFEKTRWIIEKYRLSHSSVPMDKIFRRDSDLTCLQKLLECMRKTLSKVTNCFMAEEFLTEIENLFLSNYKSNQENGVTEENCTKELLM
For the molecule B2, the binding entry in test [4], in test [3] and in test [2] was “binds” in each case.
